Two substances from article PMC9700600 can be followed below.

Chains of the proteins cited; added tags and fusions are not shown.
UniProt Q6P5F9: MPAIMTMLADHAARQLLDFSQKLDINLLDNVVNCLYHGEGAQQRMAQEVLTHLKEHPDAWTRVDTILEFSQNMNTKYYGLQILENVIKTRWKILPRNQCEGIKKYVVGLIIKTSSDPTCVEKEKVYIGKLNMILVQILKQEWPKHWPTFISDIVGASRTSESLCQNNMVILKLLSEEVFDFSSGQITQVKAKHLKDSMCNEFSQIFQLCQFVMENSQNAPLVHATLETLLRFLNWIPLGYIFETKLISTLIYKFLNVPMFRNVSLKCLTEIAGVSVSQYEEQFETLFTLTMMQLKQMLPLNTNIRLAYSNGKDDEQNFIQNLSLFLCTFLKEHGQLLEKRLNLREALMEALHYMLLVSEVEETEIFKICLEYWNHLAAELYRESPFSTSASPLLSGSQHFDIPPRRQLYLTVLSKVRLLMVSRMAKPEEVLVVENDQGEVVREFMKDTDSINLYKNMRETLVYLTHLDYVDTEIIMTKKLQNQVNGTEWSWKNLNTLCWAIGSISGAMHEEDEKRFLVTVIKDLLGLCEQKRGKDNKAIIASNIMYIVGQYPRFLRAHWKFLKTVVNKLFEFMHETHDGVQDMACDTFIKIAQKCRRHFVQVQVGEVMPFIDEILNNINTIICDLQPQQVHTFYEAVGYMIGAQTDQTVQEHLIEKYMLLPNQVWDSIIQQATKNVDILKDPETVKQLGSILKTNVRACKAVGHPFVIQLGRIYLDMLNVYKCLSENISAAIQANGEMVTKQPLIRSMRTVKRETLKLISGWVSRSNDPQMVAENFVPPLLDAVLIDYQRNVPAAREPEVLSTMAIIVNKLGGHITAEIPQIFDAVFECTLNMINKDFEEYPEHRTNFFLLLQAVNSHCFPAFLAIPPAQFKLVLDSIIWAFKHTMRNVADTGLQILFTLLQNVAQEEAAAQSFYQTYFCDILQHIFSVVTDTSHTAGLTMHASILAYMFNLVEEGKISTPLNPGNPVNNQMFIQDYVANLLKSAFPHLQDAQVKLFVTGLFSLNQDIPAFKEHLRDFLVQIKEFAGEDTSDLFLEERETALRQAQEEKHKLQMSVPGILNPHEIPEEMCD
UniProt O14980: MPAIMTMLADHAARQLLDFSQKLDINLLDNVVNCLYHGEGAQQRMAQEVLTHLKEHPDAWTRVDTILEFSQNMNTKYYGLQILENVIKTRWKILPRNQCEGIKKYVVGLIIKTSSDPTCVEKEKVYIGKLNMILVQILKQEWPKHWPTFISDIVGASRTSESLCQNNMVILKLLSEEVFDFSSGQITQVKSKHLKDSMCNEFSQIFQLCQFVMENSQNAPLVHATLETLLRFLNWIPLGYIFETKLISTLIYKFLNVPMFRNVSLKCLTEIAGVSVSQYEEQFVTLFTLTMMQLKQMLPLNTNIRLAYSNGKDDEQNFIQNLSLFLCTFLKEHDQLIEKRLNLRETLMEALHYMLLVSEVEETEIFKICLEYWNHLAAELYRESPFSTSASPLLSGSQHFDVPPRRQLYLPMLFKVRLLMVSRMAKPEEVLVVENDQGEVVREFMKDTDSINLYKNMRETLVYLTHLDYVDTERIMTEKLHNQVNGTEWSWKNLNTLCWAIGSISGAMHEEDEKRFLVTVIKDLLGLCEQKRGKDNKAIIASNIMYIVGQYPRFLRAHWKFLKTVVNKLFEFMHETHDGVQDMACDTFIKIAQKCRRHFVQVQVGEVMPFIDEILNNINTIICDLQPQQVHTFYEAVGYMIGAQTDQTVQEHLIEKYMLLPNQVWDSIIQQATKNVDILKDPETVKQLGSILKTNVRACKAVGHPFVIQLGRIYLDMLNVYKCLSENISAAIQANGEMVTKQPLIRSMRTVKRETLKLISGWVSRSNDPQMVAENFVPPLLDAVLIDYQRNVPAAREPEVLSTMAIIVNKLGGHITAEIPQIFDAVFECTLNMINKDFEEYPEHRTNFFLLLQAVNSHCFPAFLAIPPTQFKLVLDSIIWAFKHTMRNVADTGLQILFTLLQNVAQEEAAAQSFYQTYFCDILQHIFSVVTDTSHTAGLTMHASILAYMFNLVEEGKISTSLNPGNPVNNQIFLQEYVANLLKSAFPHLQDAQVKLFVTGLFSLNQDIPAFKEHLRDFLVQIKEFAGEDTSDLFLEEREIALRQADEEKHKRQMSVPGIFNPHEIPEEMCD
UniProt P30153: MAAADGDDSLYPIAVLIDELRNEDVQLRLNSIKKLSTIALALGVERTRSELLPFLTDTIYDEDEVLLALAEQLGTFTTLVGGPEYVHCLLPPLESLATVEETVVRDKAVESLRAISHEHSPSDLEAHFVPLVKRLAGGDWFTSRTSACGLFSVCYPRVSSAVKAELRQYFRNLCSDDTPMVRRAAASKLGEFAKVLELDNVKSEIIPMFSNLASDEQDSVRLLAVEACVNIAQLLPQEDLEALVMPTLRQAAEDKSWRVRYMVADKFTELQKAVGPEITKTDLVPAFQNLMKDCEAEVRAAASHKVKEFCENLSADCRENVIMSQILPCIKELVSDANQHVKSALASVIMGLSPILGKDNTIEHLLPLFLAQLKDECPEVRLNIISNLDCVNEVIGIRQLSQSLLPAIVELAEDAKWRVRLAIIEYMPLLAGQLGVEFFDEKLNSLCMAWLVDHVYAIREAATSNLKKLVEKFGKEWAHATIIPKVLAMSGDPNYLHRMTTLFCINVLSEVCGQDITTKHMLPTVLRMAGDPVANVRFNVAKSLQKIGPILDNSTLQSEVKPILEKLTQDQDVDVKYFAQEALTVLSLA

No constants are given. Whether binding was seen depends on the method and setting. Binding seen in cells or lysates may run through a third protein. Some results given as binding are weak or reduced against the parent protein; the word gives no strength.

Assay [1] concerns the target CRM1 in WT cells (endogenous) (mouse (endogenous in MEFs)) (UniProt Q6P5F9). The experiment in a line: proximity ligation; PR65 and CRM1 in WT cells, untreated or irradiated with 10 Gy.
Assay [2] has the same target. The experiment in a line: condition: only cells pretreated with LMB (1 ng/ml); proximity ligation; PR65 and CRM1 in WT cells pretreated with leptomycin B (LMB, 1 ng/ml).
The target in assay [3] is Flag-CRM1 (chromosome region maintenance 1) (UniProt O14980). Briefly: co-IP; HEK293 cells transfected with Flag-CRM1, mRuby2-PR65 and RanQ69L plasmids; whole-cell immunoprecipitation at 72 h with Flag-beads; western blot with anti-PR65 and anti-Flag. For orientation: A western blot detects proteins with antibodies after separation by electrophoresis.

Consider “PR65 in WT cells (Flag-PR65 WT in PR65 KO MEFs) (from UniProt P30153 1-589)”, for which the figures for the binding result in assay [1] and in assay [2] were “binds” and “no binding”, respectively. With mRuby2-PR65 (from UniProt P30153 1-589), in assay [3], the binding result is “binds”.
